In patent publication US20200087393A1:
These are yes or no findings as the source states them, for the method shown. Some binding calls cover weakened binding; strength is not graded here.

Protein sequences, listed by entry. Tags and fused reporters are not part of them.
UniProt Q9UI33: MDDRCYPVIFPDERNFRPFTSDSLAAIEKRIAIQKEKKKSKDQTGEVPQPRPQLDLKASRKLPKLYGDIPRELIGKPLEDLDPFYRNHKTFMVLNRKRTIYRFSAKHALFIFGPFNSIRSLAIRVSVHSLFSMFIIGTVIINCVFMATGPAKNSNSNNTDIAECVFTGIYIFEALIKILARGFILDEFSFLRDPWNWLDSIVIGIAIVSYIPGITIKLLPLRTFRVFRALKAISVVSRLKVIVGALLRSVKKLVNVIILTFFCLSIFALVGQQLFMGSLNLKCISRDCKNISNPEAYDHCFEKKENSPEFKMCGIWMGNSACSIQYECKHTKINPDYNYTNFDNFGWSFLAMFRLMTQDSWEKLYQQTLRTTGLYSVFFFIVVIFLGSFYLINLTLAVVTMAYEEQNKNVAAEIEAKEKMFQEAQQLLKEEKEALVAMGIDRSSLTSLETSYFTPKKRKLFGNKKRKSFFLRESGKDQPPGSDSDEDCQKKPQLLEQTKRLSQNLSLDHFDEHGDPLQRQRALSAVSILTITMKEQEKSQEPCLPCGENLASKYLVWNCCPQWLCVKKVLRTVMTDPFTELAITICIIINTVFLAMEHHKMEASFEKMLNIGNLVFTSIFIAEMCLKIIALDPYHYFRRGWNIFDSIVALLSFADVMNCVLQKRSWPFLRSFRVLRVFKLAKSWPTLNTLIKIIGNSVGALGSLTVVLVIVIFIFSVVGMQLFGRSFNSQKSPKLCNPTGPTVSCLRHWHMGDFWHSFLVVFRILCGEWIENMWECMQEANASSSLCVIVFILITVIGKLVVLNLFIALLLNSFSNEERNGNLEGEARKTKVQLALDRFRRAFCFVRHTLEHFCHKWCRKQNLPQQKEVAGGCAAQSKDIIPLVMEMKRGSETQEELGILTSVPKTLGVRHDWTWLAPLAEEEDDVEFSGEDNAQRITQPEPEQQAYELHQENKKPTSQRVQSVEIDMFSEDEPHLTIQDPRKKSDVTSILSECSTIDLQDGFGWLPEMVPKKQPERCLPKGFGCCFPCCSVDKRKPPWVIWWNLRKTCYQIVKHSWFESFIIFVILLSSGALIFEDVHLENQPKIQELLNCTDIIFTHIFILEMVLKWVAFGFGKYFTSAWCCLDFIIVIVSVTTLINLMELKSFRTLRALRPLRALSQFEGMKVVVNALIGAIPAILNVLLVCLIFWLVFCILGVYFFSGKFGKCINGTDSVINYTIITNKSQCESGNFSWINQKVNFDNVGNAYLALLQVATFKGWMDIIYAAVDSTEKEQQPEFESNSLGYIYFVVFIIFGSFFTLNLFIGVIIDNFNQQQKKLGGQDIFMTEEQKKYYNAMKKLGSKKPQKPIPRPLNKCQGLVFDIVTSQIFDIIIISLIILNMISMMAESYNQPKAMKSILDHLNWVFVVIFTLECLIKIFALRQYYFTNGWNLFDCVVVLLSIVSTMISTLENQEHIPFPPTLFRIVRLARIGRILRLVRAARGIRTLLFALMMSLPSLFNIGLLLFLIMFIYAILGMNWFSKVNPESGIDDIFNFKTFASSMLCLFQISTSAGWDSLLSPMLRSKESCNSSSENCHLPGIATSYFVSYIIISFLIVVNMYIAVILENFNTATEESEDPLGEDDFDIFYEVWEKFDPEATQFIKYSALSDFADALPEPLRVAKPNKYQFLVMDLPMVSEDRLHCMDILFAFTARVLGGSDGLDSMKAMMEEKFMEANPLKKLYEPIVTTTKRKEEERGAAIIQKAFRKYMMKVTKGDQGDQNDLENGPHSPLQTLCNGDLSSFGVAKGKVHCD

How the values were obtained:
human Nav1.9-HA (human) [1] = biological target: human Nav1.9-HA (human) (UniProt Q9UI33); test: Western blot of lysate of ND7/23 cells transfected with human Nav1.9-HA; antibody 1:300
human Nav1.9-HA (human) [2] = biological target: human Nav1.9-HA (human) (UniProt Q9UI33); test: Western blot of total protein of ND7/23 cells transiently expressing human Nav1.9

binding (human Nav1.9-HA (human) [1]): binds
binding (human Nav1.9-HA (human) [2]): binds
B1: antibody 51H10D12 (antibody, mouse IgG2b, kappa, V domains shown)
VH: QVQLQQPGAELVRPGASVKLSCKASGYSFTSYWMNWVKQRPGQGLEWIGMIHPSDSETRLNQKFKDKATLTVDKSSSTAYMQLSSPTSEDSAVYYCARQGFAYWGQGTLVTVST
VL: DIQMNQSPSSLSASLGDTITITCHASQNINVWLSWYQQKPGNIPKLLIYKASNLRTGVPSRFSGSGSGTGFTLTISSLQPEDIATYYCHQGQSYPWTFGGGTKLEIKR
